Some of the results follow.
How the values were obtained:
Test in all cases: glycan array binding signal (z-score within array); higher = stronger binding
Details in all cases: glycan notation: IUPAC condensed, linker removed
[1] = biological target: Gal(b1-4)GlcNAc(b1-2)Man(a1-6)[GlcNAc(b1-2)Man(a1-3)]Man(b1-4)GlcNAc(b1-4)GlcNAc
How it was run: (§1)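 The binding signal is a Z-score computed within each array. Data were drawn from 3228 arrays in the Consortium for Functional Glycomics database, restricted to those with a known protein sequence. Scores were averaged over arrays of the same protein sequence at different concentrations or buffers, and over linkers, and negative values can be taken as non-binding.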

[2] = biological target: Gal(b1-4)GlcNAc(b1-2)Man(a1-6)[Man(a1-3)]Man(b1-4)GlcNAc(b1-4)GlcNAc
How it was run: as §1

[3] = biological target: Gal(b1-4)GlcNAc(b1-2)[Gal(b1-4)GlcNAc(b1-4)]Man(a1-3)[Gal(b1-4)GlcNAc(b1-2)Man(a1-6)]Man(b1-4)GlcNAc(b1-4)GlcNAc
How it was run: as §1

[4] = biological target: Gal(b1-4)GlcNAc(b1-2)[Gal(b1-4)GlcNAc(b1-4)]Man(a1-3)[Gal(b1-4)GlcNAc(b1-2)[Gal(b1-4)GlcNAc(b1-6)]Man(a1-6)]Man(b1-4)GlcNAc(b1-4)GlcNAc
How it was run: as §1

[5] = biological target: Gal(b1-4)GlcNAc(b1-2)[Gal(b1-4)GlcNAc(b1-4)]Man(a1-3)[GlcNAc(b1-4)][Gal(b1-4)GlcNAc(b1-2)Man(a1-6)]Man(b1-4)GlcNAc(b1-4)GlcNAc
How it was run: as §1

[6] = biological target: Gal(b1-4)GlcNAc(b1-2)[Gal(b1-4)GlcNAc(b1-4)]Man(a1-3)[GlcNAc(b1-4)][Gal(b1-4)GlcNAc(b1-2)[Gal(b1-4)GlcNAc(b1-6)]Man(a1-6)]Man(b1-4)GlcNAc(b1-4)GlcNAc
How it was run: as §1

[7] = biological target: Gal(b1-4)GlcNAc(b1-2)[Gal(b1-4)GlcNAc(b1-6)]Man(a1-6)[Gal(b1-4)GlcNAc(b1-2)Man(a1-3)]Man(b1-4)GlcNAc(b1-4)GlcNAc
How it was run: as §1

[8] = biological target: Gal(b1-4)GlcNAc(b1-2)[Gal(b1-4)GlcNAc(b1-6)]Man(a1-6)[Gal(b1-4)GlcNAc(b1-2)Man(a1-3)]Man(b1-4)GlcNAc(b1-4)[Fuc(a1-6)]GlcNAc
How it was run: as §1

[9] = biological target: Gal(b1-4)GlcNAc(b1-2)[Gal(b1-4)GlcNAc(b1-6)]Man(a1-6)[GlcNAc(b1-4)][Gal(b1-4)GlcNAc(b1-2)Man(a1-3)]Man(b1-4)GlcNAc(b1-4)GlcNAc
How it was run: as §1

[10] = biological target: Gal(b1-4)GlcNAc(b1-2)[Gal(b1-4)GlcNAc(b1-6)]Man(a1-6)[GlcNAc(b1-4)][Gal(b1-4)GlcNAc(b1-2)[Gal(b1-4)GlcNAc(b1-4)]Man(a1-3)]Man(b1-4)GlcNAc(b1-4)[Fuc(a1-6)]GlcNAc
How it was run: as §1

[11] = biological target: Gal(b1-4)GlcNAc(b1-3)Gal(b1-3)GalNAc
How it was run: as §1

[12] = biological target: Gal(b1-4)GlcNAc(b1-3)Gal(b1-3)GlcNAc
How it was run: as §1

[13] = biological target: Gal(b1-4)GlcNAc(b1-3)Gal(b1-4)Glc
How it was run: as §1

[14] = biological target: Gal(b1-4)GlcNAc(b1-3)Gal(b1-4)GlcNAc
How it was run: as §1

[15] = biological target: Gal(b1-4)GlcNAc(b1-3)Gal(b1-4)GlcNAc(b1-2)Man(a1-3)[Gal(b1-4)GlcNAc(b1-3)Gal(b1-4)GlcNAc(b1-2)Man(a1-6)]Man(b1-4)GlcNAc(b1-4)GlcNAc
How it was run: as §1

[16] = biological target: Gal(b1-4)GlcNAc(b1-3)Gal(b1-4)GlcNAc(b1-2)Man(a1-3)[Gal(b1-4)GlcNAc(b1-3)Gal(b1-4)GlcNAc(b1-2)Man(a1-6)]Man(b1-4)GlcNAc(b1-4)[Fuc(a1-6)]GlcNAc
How it was run: as §1

[17] = biological target: Gal(b1-4)GlcNAc(b1-3)Gal(b1-4)GlcNAc(b1-2)[Gal(b1-4)GlcNAc(b1-3)Gal(b1-4)GlcNAc(b1-6)]Man(a1-6)[Gal(b1-4)GlcNAc(b1-3)Gal(b1-4)GlcNAc(b1-2)Man(a1-3)]Man(b1-4)GlcNAc(b1-4)GlcNAc
How it was run: as §1

[18] = biological target: Gal(b1-4)GlcNAc(b1-3)Gal(b1-4)GlcNAc(b1-2)[Gal(b1-4)GlcNAc(b1-3)Gal(b1-4)GlcNAc(b1-6)]Man(a1-6)[Gal(b1-4)GlcNAc(b1-3)Gal(b1-4)GlcNAc(b1-2)Man(a1-3)]Man(b1-4)GlcNAc(b1-4)[Fuc(a1-6)]GlcNAc
How it was run: as §1

B1: SP15308B-bot-339-22-339 (Bacteroides ovatus) (protein)
chain: NEWEDEQYEQYVSFKAPIASGSDGVTTIYVRYKDNGKVTYQLPIIVSGSTVNSQDRDIHIAVDKDTLKTLNIERFSLYRPELWYTEMEEDKYEFPETVHIPAGSCVELLNIDFNLQDIDMLEKWVLPLTIVDDGSYAYQSHPRKNYAKALLKVVPFNNYSGSYTASSMKVYTYINGKPDTNARTTDKRTGYVVDNNSIFFYAGLINEDMDKDMRKKYKINVHFKEDGTLDMKQDDPSNEMEFELIGTPTYSSTSVMDATRPYLERRYVQIMFEYDFQDFTYGGSGTEVIPIKYRVAGSMTLLRNINTQIPDEDQQIEW
Q: With B1 as the binder, how does the “glycan array binding signal (z-score)” value [1] read?
A: The value was -0.154.

Q: And the “glycan array binding signal (z-score)” value [2]?
A: Its value is -0.11.

Q: What about the “glycan array binding signal (z-score)” value [3] of the same binder?
A: The value was -0.285.

Q: And the “glycan array binding signal (z-score)” value [4]?
A: Its value is 0.109.

Q: What about the “glycan array binding signal (z-score)” value [5] of the same binder?
A: Its value is -0.055.

Q: And the “glycan array binding signal (z-score)” value [6]?
A: The value was -0.148.

Q: What about the “glycan array binding signal (z-score)” value [7] of the same binder?
A: The value was 0.

Q: And the “glycan array binding signal (z-score)” value [8]?
A: The value was 1.76.

Q: And the “glycan array binding signal (z-score)” value [9]?
A: Its value is 0.006.

Q: What about the “glycan array binding signal (z-score)” value [10] of the same binder?
A: The value was -0.364.

Q: And the “glycan array binding signal (z-score)” value [11]?
A: Its value is -0.381.

Q: And the “glycan array binding signal (z-score)” value [12]?
A: Its value is -0.274.

Q: And the “glycan array binding signal (z-score)” value [13]?
A: The value was -0.016.

Q: What about the “glycan array binding signal (z-score)” value [14] of the same binder?
A: Its value is -0.498.

Q: What about the “glycan array binding signal (z-score)” value [15] of the same binder?
A: The value was 2.8.

Q: What about the “glycan array binding signal (z-score)” value [16] of the same binder?
A: The value was 2.57.

Q: What about the “glycan array binding signal (z-score)” value [17] of the same binder?
A: The value was 0.717.

Q: What about the “glycan array binding signal (z-score)” value [18] of the same binder?
A: Its value is 1.51.

Reference: the supplement of paper PMC8728848
